Measured values reported in article PMC8694054.
No constants are given. Whether binding was seen depends on the method and setting. In cells and extracts the contact can be indirect. Some results given as binding are weak or reduced against the parent protein; the word gives no strength.

Experiments:
claudin-2, O88552 = biological target: T1, claudin-2, O88552; assay: co-IP; HEK293 cells transiently transfected with the tagged claudins; lysed in an EDTA and nonidet P-40 containing Tris buffer; lysate incubated with mouse anti-myc antibody and precipitated with protein G Dynabeads overnight at 4 °C; eluted with Laemmli buffer; immunoblot with anti-HA, then reprobed with anti-myc; three repeats; conditions: remark: other sources report otherwise
T1 chain: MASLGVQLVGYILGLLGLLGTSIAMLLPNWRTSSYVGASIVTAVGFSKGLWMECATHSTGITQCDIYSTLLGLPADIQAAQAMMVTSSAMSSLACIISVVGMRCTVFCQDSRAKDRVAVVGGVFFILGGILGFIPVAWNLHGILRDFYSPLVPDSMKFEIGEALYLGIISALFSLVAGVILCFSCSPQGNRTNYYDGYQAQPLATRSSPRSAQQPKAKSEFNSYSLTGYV

claudin-2 = biological target: T2, claudin-2 (UniProt O88552); assay: as above
T2 sequence: T1 chain

B1: claudin-2, O88552 1-230 (protein)
chain: T1 chain
claudin-2, O88552
  binding: binds

B2: claudin-12 (protein, UniProt Q9ET43 1-244)
chain: MGCRDVHAATVLSFLCGIASVAGLFAGTLLPNWRKLRLITFNRNEKNLTIYTGLWVKCARYDGSSDCLMYDRTWYLSVDQLDLRVLQFALPLSIVIAMGALLLCLIGMCNTAFNSSVPNIKLAKCLVNSAGCHLVAGLLFFLAGTVSLSPSIWAIFYNSHLNRKFEPVFTFDYAVFVTIASSGGLFMTALLLFVWYCACKSLSSPFWQPLYSHAPGMHTYSQPYSSRSRLSAIEIDIPVVSHST
claudin-2
  binding: no binding
